Data: PubChem BioAssay AID330 (DTP/NCI, 2004)
The list is a part of this screen's results and no random one: it gathers tests that were run many times, whatever their T/C, doses with no T/C, and many T/C values between a quarter and a half above the control. Further doses and runs are listed elsewhere. T/C is the treated group as % of the vehicle group. Some doses have a count of surviving animals in place of a T/C: the source holds a T/C of zero for them, seemingly a mark for toxic or unscored doses. Some survivor counts are full or nearly so, which does not show that the dose was tolerated: the source hardly ever lists a survival T/C far under the control, and the zero likely stands for such cases as well. Survivors were counted at the toxicity check, usually on the fifth day, unless a day is given; later deaths do not show. Schedules are NCI's codes, read here as Q, the interval in days (D) or hours (H), X, the number of doses. Some structures stand for samples that the source files as different forms (salt, stereo form or complex); doses refer to the form tested. Some doses were run more than once; the results are listed from low to high. Where survival is the endpoint, the PubChem record calls one and a half times the control and up active, and a quarter to a half above the control has no call in these data; cut-offs in other NCI protocols can differ. Some T/C values carry the count of animals alive at the toxicity check (mostly the fifth day); without a count, all were alive then.

Test system: P388 leukemia ip, CD2F1 mice, survival T/C
Assay: NCI In Vivo Anticancer Drug Screen. Data for tumor model P388 Leukemia (intraperitoneal) in CD2F1 (CDF1) mice
Conditions: T/C endpoint: median survival time, higher T/C = longer survival
[1] = dose: 100.0 mg/kg/injection, schedule: Q01DX005 (ip), vehicle: Klucel (hydroxypropylcellulose) (HPC)
[2] = dose: 100.0 mg/kg/injection, schedule: Q04DX002 (ip), vehicle: saline
[3] = dose: 200.0 mg/kg/injection, schedule: Q04DX002 (ip), vehicle: saline
[4] = dose: 400.0 mg/kg/injection, schedule: Q04DX002 (ip), vehicle: saline
[5] = dose: 100.0 mg/kg/injection, schedule: Q01DX009 (ip), vehicle: saline with Tween-80
[6] = dose: 200.0 mg/kg/injection, schedule: Q01DX009 (ip), vehicle: saline with Tween-80
[7] = dose: 100.0 mg/kg/injection, schedule: Q01DX009 (ip), vehicle: water
[8] = dose: 200.0 mg/kg/injection, schedule: Q01DX009 (ip), vehicle: water
[9] = dose: 20.0 mg/kg/injection, schedule: Q01DX009 (ip), vehicle: saline + alcohol

CN(C)CCCN1c2ccccc2Sc2ccc(Cl)cc21
survivor count (dose: 12.5 mg/kg/injection, schedule: Q01DX009 (ip), vehicle: saline with Tween-80): 4 of 6
T/C (dose: 25.0 mg/kg/injection, schedule: Q04DX003 (ip), vehicle: Klucel (hydroxypropylcellulose) (HPC)): 126 % of control [5 of 6 alive]
T/C (dose: 30.0 mg/kg/injection, schedule: Q04DX003 (ip), vehicle: saline): 126 % of control
T/C (dose: 50.0 mg/kg/injection, schedule: Q04DX003 (ip), vehicle: saline): 126 and 133 % of control
survivor count (dose: 60.0 mg/kg/injection, schedule: Q04DX003 (ip), vehicle: saline): 3 of 6
T/C (dose: 100.0 mg/kg/injection, schedule: Q04DX003 (ip), vehicle: Klucel (hydroxypropylcellulose) (HPC)): 138 % of control
survivor count (dose: 100.0 mg/kg/injection, schedule: Q04DX003 (ip), vehicle: saline with Tween-80): 3 of 6
survivor count (dose: 100.0 mg/kg/injection, schedule: Q04DX003 (ip), vehicle: saline): 4 of 6 and 5 of 6
survivor count (dose: 200.0 mg/kg/injection, schedule: Q04DX003 (ip), vehicle: saline with Tween-80): 0 of 6
survivor count (dose: 400.0 mg/kg/injection, schedule: Q04DX003 (ip), vehicle: saline with Tween-80): 0 of 6

COc1ccc(/C=C/c2ccc3ccccc3[n+]2C)cc1Br
survivor count [1]: 0 of 6
survivor count (dose: 200.0 mg/kg/injection, schedule: Q01DX005 (ip), vehicle: Klucel (hydroxypropylcellulose) (HPC)): 0 of 6

CN1CC2CN(C)CC(C1)C2(O)c1ccccc1 (centres undefined)
survivor count (dose: 50.0 mg/kg/injection, schedule: Q01DX009 (ip), vehicle: saline): 0 of 6, 1 of 6, 2 of 6
survivor count (dose: 100.0 mg/kg/injection, schedule: Q01DX009 (ip), vehicle: saline): 0 of 6
survivor count [2]: 0 of 6
survivor count (dose: 200.0 mg/kg/injection, schedule: Q01DX009 (ip), vehicle: saline): 0 of 6
survivor count [3]: 0 of 6
survivor count [4]: 0 of 6

CCCCCCCCCCCCCCCC[As](CCCCCCCCCCCCCCCC)SCC1OC(OC(C)=O)C(OC(C)=O)C(OC(C)=O)C1OC(C)=O (centres undefined)
T/C [5]: 125 % of control
T/C [6]: 126 % of control

O=NNc1nc2ccc([N+](=O)[O-])cc2s1
T/C (dose: 50.0 mg/kg/injection, schedule: Q01DX009 (ip), vehicle: water): 129 % of control
survivor count [7]: 0 of 6 and 2 of 6
survivor count [8]: 0 of 6

O=S(=O)(OI(O)c1ccccc1)c1ccc(Cl)cc1
survivor count [7]: 4 of 6
survivor count [8]: 0 of 6

Fc1ccc(C(Nc2nncs2)Nc2nncs2)cc1
T/C [1]: 127 % of control

CC1=CCC2C3(C)C=CC(=O)C(C)(C)C3CC3OC(=O)C=C1C32C (centres undefined)
survivor count (dose: 3.0 mg/kg/injection, schedule: Q01DX009 (ip), vehicle: Klucel (hydroxypropylcellulose) (HPC)): 6 of 6
survivor count (dose: 6.0 mg/kg/injection, schedule: Q01DX009 (ip), vehicle: Klucel (hydroxypropylcellulose) (HPC)): 6 of 6

CC(=O)OC1(c2ccccc2)CCN(C)CC1C(=O)c1ccccc1 (centres undefined)
survivor count (dose: 200.0 mg/kg/injection, schedule: Q01DX005 (ip), vehicle: saline): 2 of 6

CCCCCOCC(=O)O
survivor count [6]: 3 of 6

CN(C)CCSC1=Nc2ccc(Cl)cc2C(c2ccccc2Cl)N(C)C1 (centres undefined)
survivor count (dose: 240.0 mg/kg/injection, schedule: Q01DX005 (ip), vehicle: Klucel (hydroxypropylcellulose) (HPC)): 2 of 6

Clc1ccc(-c2cn3c(n2)SCC3)cc1
survivor count (dose: 400.0 mg/kg/injection, schedule: Q01DX001 (ip), vehicle: Klucel (hydroxypropylcellulose) (HPC)): 6 of 6

O=C(CC(=O)c1ccccc1F)Nc1ccc([N+](=O)[O-])cc1
survivor count [5]: 6 of 6
survivor count [6]: 6 of 6
survivor count (dose: 400.0 mg/kg/injection, schedule: Q01DX009 (ip), vehicle: saline with Tween-80): 5 of 6

CCNCCC1(C)Oc2ccccc2O1
survivor count (dose: 200.0 mg/kg/injection, schedule: Q01DX001 (ip), vehicle: saline): 0 of 6
survivor count (dose: 400.0 mg/kg/injection, schedule: Q01DX001 (ip), vehicle: saline): 0 of 6

[Cl][Hg][c]1cccc(I)c1N=Nc1ccccc1
T/C (dose: 10.0 mg/kg/injection, schedule: Q01DX009 (ip), vehicle: saline + alcohol): 87, 100, 100 [5 of 6 alive], 104 % of control
T/C [9]: 87, 91, 128 % of control [5 of 6 alive]
survivor count [9]: 2 of 6
survivor count (dose: 40.0 mg/kg/injection, schedule: Q01DX009 (ip), vehicle: saline + alcohol): 0 of 6 and 1 of 6
survivor count (dose: 50.0 mg/kg/injection, schedule: Q01DX009 (ip), vehicle: saline + alcohol): 0 of 6
survivor count (dose: 100.0 mg/kg/injection, schedule: Q01DX009 (ip), vehicle: saline + alcohol): 0 of 6
survivor count (dose: 200.0 mg/kg/injection, schedule: Q01DX009 (ip), vehicle: saline + alcohol): 0 of 6

C/C(=C\c1ccccc1)C(=O)C(CN(C)C)CN(C)C
survivor count (dose: 15.0 mg/kg/injection, schedule: Q01DX005 (ip), vehicle: saline): 0 of 6
survivor count (dose: 30.0 mg/kg/injection, schedule: Q01DX005 (ip), vehicle: saline): 0 of 6
survivor count (dose: 60.0 mg/kg/injection, schedule: Q01DX005 (ip), vehicle: saline): 0 of 6
survivor count (dose: 120.0 mg/kg/injection, schedule: Q01DX005 (ip), vehicle: saline): 0 of 6
survivor count (dose: 240.0 mg/kg/injection, schedule: Q01DX005 (ip), vehicle: saline): 0 of 6

CC1=CCC(C)C(C)(C)C1CC/C(C)=C/CCC1(C)C(CCCO)/C(=C(\C)C=O)CCC1(C)O (centres undefined)
survivor count (dose: 9.0 mg/kg/injection, schedule: Q01DX005 (ip), vehicle: Klucel (hydroxypropylcellulose) (HPC)): 4 of 6
survivor count (dose: 18.0 mg/kg/injection, schedule: Q01DX005 (ip), vehicle: Klucel (hydroxypropylcellulose) (HPC)): 0 of 6
survivor count (dose: 36.0 mg/kg/injection, schedule: Q01DX005 (ip), vehicle: Klucel (hydroxypropylcellulose) (HPC)): 0 of 6

CCCCNCCCNCCCNC(=O)c1csc(-c2csc(CCNC(=O)C(NC(=O)C(C)C(O)C(C)NC(=O)C(NC(=O)c3nc(C(CC(N)=O)NCC(N)C(N)=O)nc(N)c3C)C(OC3OC(CO)C(O)C(O)C3OC3OC(CO)C(O)C(OC(N)=O)C3O)c3cnc[nH]3)C(C)O)n2)n1 (centres undefined)
T/C (dose: 1.25 mg/kg/injection, schedule: Q01DX009 (ip), vehicle: water): 132 % of control
T/C (dose: 10.0 mg/kg/injection, schedule: Q01DX009 (ip), vehicle: water): 126 and 132 % of control

CCN(CC)CCNc1cc(Nc2ccc([N+](=O)[O-])cc2)ccc1OC
survivor count (dose: 100.0 mg/kg/injection, schedule: Q01DX005 (ip), vehicle: saline with Tween-80): 5 of 5

CCCn1c2nc(=O)[nH]c(=O)c-2[n+]([O-])c2ccccc21
survivor count (dose: 25.0 mg/kg/injection, schedule: Q01DX001 (ip), vehicle: saline with Tween-80): 1 of 6

Nc1cccc(CC(=O)Nc2ccccc2)c1
survivor count (dose: 400.0 mg/kg/injection, schedule: Q04DX002 (ip), vehicle: Klucel (hydroxypropylcellulose) (HPC)): 1 of 6

COc1cc2c(c3c1C(=O)c1c(cc4c(c1O)C(OC)CC(C)(O)C4)C3=O)OC1OC2(C)C(O)C(N(C)C)C1O (centres undefined)
T/C (dose: 2.5 mg/kg/injection, schedule: Q01DX009 (ip), vehicle: other): 133 % of control
T/C (dose: 5.0 mg/kg/injection, schedule: Q01DX009 (ip), vehicle: other): 142 % of control

COc1ccc(C[n+]2ccc3ccccc3c2C#N)cc1OC
survivor count (dose: 50.0 mg/kg/injection, schedule: Q04DX002 (ip), vehicle: saline): 1 of 5
survivor count [2]: 0 of 5
survivor count [3]: 0 of 5
survivor count [4]: 0 of 5

CC(=O)C1C(=O)C(=O)N(c2ccccc2C)C1=O (centres undefined)
survivor count (dose: 240.0 mg/kg/injection, schedule: Q01DX005 (ip), vehicle: saline with Tween-80): 0 of 6
